Data published in PubChem BioAssay AID200 (DTP/NCI, 2004).
The list does not hold the whole screen: it is rich in T/C values a quarter to a half above the control, in often repeated tests (any T/C) and in doses without a T/C. Further doses and runs are listed elsewhere. T/C gives the treated animals as a percentage of the vehicle group. Some doses have a count of surviving animals in place of a T/C: the source holds a T/C of zero for them, seemingly a mark for toxic or unscored doses. Some doses without a T/C left all or most animals alive at the check, yet need not have been tolerated: the source hardly ever lists a survival T/C far under the control, and the zero likely stands for such cases as well. Counts of survivors are from the toxicity check (mostly the fifth day) where no day follows; animals may have died later. Schedule codes are those of the source, read here as Q, the interval in days (D) or hours (H), X, the number of doses. Some doses were run more than once; their values stand side by side, smallest first. Where survival is the endpoint, this PubChem deposit counts one and a half times the control or more as active, and values a quarter to a half above the control carry no call in these data; other NCI protocols may use other cut-offs. Some T/C values are followed by the survivors on the day toxicity was checked, most often the fifth; where none is given, no animal had died by that day.

System: B6C3F1 mice, B16 melanoma ip, median survival T/C
Test: NCI In Vivo Anticancer Drug Screen. Data for tumor model B16 Melanoma (intraperitoneal) in B6C3F1 mice
Settings: T/C endpoint: median survival time, higher T/C = longer survival
Procedure: The antitumor activity of compounds was measured in mice bearing transplantable tumors. Survival or tumor size were measured and the results are expressed as the measurement made in the treated group (T) divided by the measurement made in the vehicle treated control group (C). The tumor model used in this assay is B16 Melanoma (intraperitoneal) in B6C3F1 mice

[1] = dose: 8.0 mg/kg/injection, schedule: Q01DX009 (ip), vehicle: Klucel (hydroxypropylcellulose) (HPC)
[2] = dose: 32.0 mg/kg/injection, schedule: Q01DX009 (ip), vehicle: Klucel (hydroxypropylcellulose) (HPC)
[3] = dose: 64.0 mg/kg/injection, schedule: Q01DX009 (ip), vehicle: Klucel (hydroxypropylcellulose) (HPC)

Compound: COc1cc(NS(C)(=O)=O)ccc1Nc1c2ccccc2nc2ccccc12
- T/C (dose: 0.25 mg/kg/injection, schedule: Q01DX009 (ip), vehicle: other): 132 and 138 % of control
- T/C (dose: 0.5 mg/kg/injection, schedule: Q01DX009 (ip), vehicle: other): 142 % of control
- T/C (dose: 1.0 mg/kg/injection, schedule: Q01DX009 (ip), vehicle: other, evaluated on day 5): 159 % of control
- T/C (dose: 1.0 mg/kg/injection, schedule: Q01DX009 (ip), vehicle: other, evaluated on day 45): 177 and 179 % of control
- T/C (dose: 1.0 mg/kg/injection, schedule: Q01DX009 (ip), vehicle: other, evaluated on day 50): 177 % of control
- T/C (dose: 1.0 mg/kg/injection, schedule: Q01DX009 (ip), vehicle: saline with Tween-80): 148 % of control
- T/C (dose: 1.0 mg/kg/injection, schedule: Q01DX009 (ip), vehicle: saline, evaluated on day 5): 122 [8 of 9 alive], 143, 156 % of control
- T/C (dose: 1.0 mg/kg/injection, schedule: Q01DX009 (ip), vehicle: saline, evaluated on day 60): 111 and 123 % of control
- survivor count (dose: 2.0 mg/kg/injection, schedule: Q01DX005 (ip), vehicle: other): 10 of 10
- survivor count (dose: 2.0 mg/kg/injection, schedule: Q01DX005 (iv), vehicle: other): 10 of 10
- T/C (dose: 2.0 mg/kg/injection, schedule: Q01DX009 (ip), vehicle: other, evaluated on day 5): 168 % of control
- T/C (dose: 2.0 mg/kg/injection, schedule: Q01DX009 (ip), vehicle: other, evaluated on day 45): 181 and 230 % of control
- T/C (dose: 2.0 mg/kg/injection, schedule: Q01DX009 (ip), vehicle: other, evaluated on day 50): 225 % of control
- T/C (dose: 2.0 mg/kg/injection, schedule: Q01DX009 (ip), vehicle: saline, evaluated on day 5): 127 [6 of 8 alive], 144, 166, 186 % of control
- T/C (dose: 2.0 mg/kg/injection, schedule: Q01DX009 (ip), vehicle: saline, evaluated on day 60): 126 and 148 % of control
- survivor count (dose: 4.0 mg/kg/injection, schedule: Q01DX005 (ip), vehicle: other): 8 of 10
- survivor count (dose: 4.0 mg/kg/injection, schedule: Q01DX005 (iv), vehicle: clinical formulation): 10 of 10
- survivor count (dose: 4.0 mg/kg/injection, schedule: Q01DX005 (iv), vehicle: other): 7 of 10
- T/C (dose: 4.0 mg/kg/injection, schedule: Q01DX009 (ip), vehicle: other, evaluated on day 5): 171 % of control
- T/C (dose: 4.0 mg/kg/injection, schedule: Q01DX009 (ip), vehicle: other, evaluated on day 45): 138 % of control
- T/C (dose: 4.0 mg/kg/injection, schedule: Q01DX009 (ip), vehicle: other, evaluated on day 50): 115 % of control
- survivor count (dose: 4.0 mg/kg/injection, schedule: Q01DX009 (ip), vehicle: other): 10 of 10
- T/C (dose: 8.0 mg/kg/injection, schedule: Q01DX001 (ip), vehicle: clinical formulation): 145 % of control
- survivor count (dose: 8.0 mg/kg/injection, schedule: Q01DX005 (ip), vehicle: clinical formulation): 10 of 10
- survivor count (dose: 8.0 mg/kg/injection, schedule: Q01DX005 (ip), vehicle: other): 9 of 10
- survivor count (dose: 8.0 mg/kg/injection, schedule: Q01DX005 (iv), vehicle: clinical formulation): 9 of 10
- survivor count (dose: 8.0 mg/kg/injection, schedule: Q01DX005 (iv), vehicle: other): 8 of 10
- survivor count (dose: 8.0 mg/kg/injection, schedule: Q01DX009 (ip), vehicle: other): 9 of 10
- T/C (dose: 16.0 mg/kg/injection, schedule: Q01DX001 (ip), vehicle: clinical formulation): 144 % of control
- survivor count (dose: 16.0 mg/kg/injection, schedule: Q01DX005 (ip), vehicle: clinical formulation): 6 of 10
- survivor count (dose: 16.0 mg/kg/injection, schedule: Q01DX005 (iv), vehicle: clinical formulation): 0 of 10
- survivor count (dose: 16.0 mg/kg/injection, schedule: Q01DX005 (oral), vehicle: other): 6 of 10
- survivor count (dose: 16.0 mg/kg/injection, schedule: Q01DX009 (ip), vehicle: saline with Tween-80): 10 of 10
- survivor count (dose: 32.0 mg/kg/injection, schedule: Q01DX001 (ip), vehicle: clinical formulation): 2 of 10
- survivor count (dose: 32.0 mg/kg/injection, schedule: Q01DX001 (iv), vehicle: clinical formulation): 9 of 10
- survivor count (dose: 64.0 mg/kg/injection, schedule: Q01DX001 (ip), vehicle: clinical formulation): 0 of 10
- survivor count (dose: 64.0 mg/kg/injection, schedule: Q01DX001 (iv), vehicle: clinical formulation): 0 of 10

Compound: NC(CSC(c1ccccc1)(c1ccccc1)c1ccccc1)C(=O)O (stereo not drawn)
- T/C [1]: 128 % of control
- survivor count [2]: 10 of 10
- survivor count [3]: 10 of 10
- survivor count (dose: 128.0 mg/kg/injection, schedule: Q01DX009 (ip), vehicle: Klucel (hydroxypropylcellulose) (HPC)): 9 of 10

Compound: O=C(NNC(=O)c1cccc(C(=O)NNC(=O)c2ccc(Cl)c(Cl)c2)n1)c1ccc(Cl)c(Cl)c1
- survivor count (dose: 25.0 mg/kg/injection, schedule: Q01DX009 (ip), vehicle: Klucel (hydroxypropylcellulose) (HPC)): 8 of 10
- survivor count (dose: 200.0 mg/kg/injection, schedule: Q01DX009 (ip), vehicle: Klucel (hydroxypropylcellulose) (HPC)): 8 of 10

Compound: O=NNc1ccc(Br)cn1
- T/C (dose: 6.25 mg/kg/injection, schedule: Q01DX009 (ip), vehicle: water): 125 and 132 % of control
- survivor count (dose: 25.0 mg/kg/injection, schedule: Q01DX009 (ip), vehicle: water): 10 of 10

Compound: C1CN1P1(N2CC2)=NP(N2CC2)(N2CC2)=NP(N2CC2)(N2CC2)=N1
- T/C (dose: 2.0 mg/kg/injection, schedule: Q01DX009 (ip), vehicle: Klucel (hydroxypropylcellulose) (HPC)): 134 % of control
- T/C (dose: 4.0 mg/kg/injection, schedule: Q01DX009 (ip), vehicle: Klucel (hydroxypropylcellulose) (HPC)): 138 and 149 % of control
- T/C [1]: 147 % of control
- T/C (dose: 8.0 mg/kg/injection, schedule: Q02DX009 (ip), vehicle: Klucel (hydroxypropylcellulose) (HPC)): 147 % of control
- survivor count (dose: 16.0 mg/kg/injection, schedule: Q01DX009 (ip), vehicle: Klucel (hydroxypropylcellulose) (HPC)): 9 of 10 and 10 of 10
- T/C (dose: 16.0 mg/kg/injection, schedule: Q02DX009 (ip), vehicle: Klucel (hydroxypropylcellulose) (HPC)): 138 % of control
- survivor count [2]: 3 of 10 and 10 of 10
- survivor count (dose: 32.0 mg/kg/injection, schedule: Q02DX009 (ip), vehicle: Klucel (hydroxypropylcellulose) (HPC)): 9 of 10 and 10 of 10
- survivor count [3]: 0 of 10 and 4 of 10
- survivor count (dose: 64.0 mg/kg/injection, schedule: Q02DX009 (ip), vehicle: Klucel (hydroxypropylcellulose) (HPC)): 3 of 10 and 9 of 10

Compound: COc1cc2c(c(OC)c1OC)-c1cccc(=O)cc1C(NC(C)=O)CC2 (stereo not drawn)
- T/C (dose: 5.0 mg/kg/injection, schedule: Q01DX009 (ip), vehicle: Klucel (hydroxypropylcellulose) (HPC)): 144 % of control
- T/C (dose: 10.0 mg/kg/injection, schedule: Q01DX009 (ip), vehicle: Klucel (hydroxypropylcellulose) (HPC)): 148 % of control
- survivor count (dose: 20.0 mg/kg/injection, schedule: Q01DX009 (ip), vehicle: Klucel (hydroxypropylcellulose) (HPC)): 2 of 10
- survivor count (dose: 30.0 mg/kg/injection, schedule: Q01DX009 (ip), vehicle: Klucel (hydroxypropylcellulose) (HPC)): 0 of 10

Compound: COc1cc(C)c2c(c1C=O)Oc1c(c(C)c(O)c3c1C(O)OC3=O)OC2=O (stereo not drawn)
- survivor count (dose: 100.0 mg/kg/injection, schedule: Q01DX009 (ip), vehicle: saline): 7 of 10

Compound: O=C1CN(CO)C(=O)N1CO
- survivor count (dose: 400.0 mg/kg/injection, schedule: Q01DX009 (ip), vehicle: Klucel (hydroxypropylcellulose) (HPC)): 9 of 10

Compound: CC(=O)O[C@H]1C(=O)[C@@]2(C)C(C(OC(=O)c3ccccc3)[C@]3(O)C[C@H](OC(=O)C(OC(=O)CCCC(=O)NCCCN(C)C)C(NC(=O)c4ccccc4)c4ccccc4)C(C)=C1C3(C)C)C1(OC(C)=O)COC1C[C@@H]2O (stereo partly drawn)
- T/C (dose: 2.5 mg/kg/injection, schedule: Q01DX009 (ip), vehicle: water): 131 % of control
- T/C (dose: 5.0 mg/kg/injection, schedule: Q01DX009 (ip), vehicle: water): 149 % of control
